Publication PMC10442334
These are yes or no findings as the source states them, for the method shown. Binding seen in cells or lysates may run through a third protein. These calls come from enrichment with a bait or labelling near it, and not all partners need be listed.

Amino acid sequences for entries named in this document (tags omitted).
UniProt P35579: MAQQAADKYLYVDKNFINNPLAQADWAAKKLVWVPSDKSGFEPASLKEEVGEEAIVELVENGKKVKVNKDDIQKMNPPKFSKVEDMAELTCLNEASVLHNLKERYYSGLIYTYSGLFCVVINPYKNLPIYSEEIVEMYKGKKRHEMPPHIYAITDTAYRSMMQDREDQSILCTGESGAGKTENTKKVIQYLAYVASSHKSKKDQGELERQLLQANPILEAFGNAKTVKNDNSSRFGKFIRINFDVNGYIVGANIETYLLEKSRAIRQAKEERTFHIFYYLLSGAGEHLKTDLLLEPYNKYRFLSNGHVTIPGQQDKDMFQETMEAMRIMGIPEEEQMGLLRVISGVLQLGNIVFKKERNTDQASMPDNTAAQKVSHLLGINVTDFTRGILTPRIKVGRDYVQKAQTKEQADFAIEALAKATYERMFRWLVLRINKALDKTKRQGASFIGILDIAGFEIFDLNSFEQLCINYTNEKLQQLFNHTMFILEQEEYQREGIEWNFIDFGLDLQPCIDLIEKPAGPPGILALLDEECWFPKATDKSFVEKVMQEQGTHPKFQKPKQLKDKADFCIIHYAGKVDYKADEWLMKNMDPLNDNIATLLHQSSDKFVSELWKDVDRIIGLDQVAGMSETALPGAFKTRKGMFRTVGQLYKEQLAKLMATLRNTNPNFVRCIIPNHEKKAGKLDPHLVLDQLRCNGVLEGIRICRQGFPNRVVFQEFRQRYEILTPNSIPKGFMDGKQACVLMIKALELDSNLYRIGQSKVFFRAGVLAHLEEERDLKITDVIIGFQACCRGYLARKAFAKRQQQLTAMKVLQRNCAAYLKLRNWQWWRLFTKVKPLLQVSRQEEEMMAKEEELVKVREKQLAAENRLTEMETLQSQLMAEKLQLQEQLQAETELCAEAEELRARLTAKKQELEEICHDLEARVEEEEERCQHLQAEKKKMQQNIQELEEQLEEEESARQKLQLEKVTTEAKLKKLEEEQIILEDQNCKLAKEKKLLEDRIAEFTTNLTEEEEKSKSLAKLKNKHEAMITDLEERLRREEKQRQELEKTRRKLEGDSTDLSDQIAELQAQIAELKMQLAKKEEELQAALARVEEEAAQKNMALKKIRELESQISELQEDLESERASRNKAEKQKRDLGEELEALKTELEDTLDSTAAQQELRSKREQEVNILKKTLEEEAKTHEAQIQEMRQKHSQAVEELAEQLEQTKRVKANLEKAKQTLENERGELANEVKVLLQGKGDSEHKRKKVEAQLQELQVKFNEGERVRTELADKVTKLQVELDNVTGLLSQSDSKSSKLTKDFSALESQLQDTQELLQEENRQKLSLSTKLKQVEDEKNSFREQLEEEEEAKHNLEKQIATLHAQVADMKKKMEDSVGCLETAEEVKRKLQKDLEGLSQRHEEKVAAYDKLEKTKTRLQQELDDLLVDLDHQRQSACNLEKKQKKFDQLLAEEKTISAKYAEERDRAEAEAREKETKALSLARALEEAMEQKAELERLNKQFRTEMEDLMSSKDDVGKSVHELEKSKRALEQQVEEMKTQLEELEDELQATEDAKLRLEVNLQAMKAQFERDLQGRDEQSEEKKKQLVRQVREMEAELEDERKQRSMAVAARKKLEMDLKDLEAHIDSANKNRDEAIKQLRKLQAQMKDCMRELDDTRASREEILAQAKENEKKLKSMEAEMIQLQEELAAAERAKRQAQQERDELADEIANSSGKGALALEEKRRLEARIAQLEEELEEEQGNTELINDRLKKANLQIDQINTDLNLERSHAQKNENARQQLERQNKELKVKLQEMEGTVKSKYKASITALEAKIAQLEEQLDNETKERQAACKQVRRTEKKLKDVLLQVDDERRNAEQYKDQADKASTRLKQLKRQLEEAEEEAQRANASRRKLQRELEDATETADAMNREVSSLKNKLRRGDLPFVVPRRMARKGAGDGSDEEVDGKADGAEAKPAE

B1: MCM6 (endogenous) (protein, UniProt Q14566 1-821)
chain: MDLAAAAEPGAGSQHLEVRDEVAEKCQKLFLDFLEEFQSSDGEIKYLQLAEELIRPERNTLVVSFVDLEQFNQQLSTTIQEEFYRVYPYLCRALKTFVKDRKEIPLAKDFYVAFQDLPTRHKIRELTSSRIGLLTRISGQVVRTHPVHPELVSGTFLCLDCQTVIRDVEQQFKYTQPNICRNPVCANRRRFLLDTNKSRFVDFQKVRIQETQAELPRGSIPRSLEVILRAEAVESAQAGDKCDFTGTLIVVPDVSKLSTPGARAETNSRVSGVDGYETEGIRGLRALGVRDLSYRLVFLACCVAPTNPRFGGKELRDEEQTAESIKNQMTVKEWEKVFEMSQDKNLYHNLCTSLFPTIHGNDEVKRGVLLMLFGGVPKTTGEGTSLRGDINVCIVGDPSTAKSQFLKHVEEFSPRAVYTSGKASSAAGLTAAVVRDEESHEFVIEAGALMLADNGVCCIDEFDKMDVRDQVAIHEAMEQQTISITKAGVKATLNARTSILAAANPISGHYDRSKSLKQNINLSAPIMSRFDLFFILVDECNEVTDYAIARRIVDLHSRIEESIDRVYSLDDIRRYLLFARQFKPKISKESEDFIVEQYKHLRQRDGSGVTKSSWRITVRQLESMIRLSEAMARMHCCDEVQPKHVKEAFRLLNKSIIRVETPDVNLDQEEEIQMEVDEGAGGINGHADSPAPVNGINGYNEDINQESAPKASLRLGFSEYCRISNLIVLHLRKVEEEEDESALKRSELVNWYLKEIESEIDSEEELINKKRIIEKVIHRLTHYDHVLIELTQAGLKGSTEGSESYEEDPYLVVNPNYLLED

Each molecule was assayed against FLAG-tagged NFIB (UniProt O00712) (assay: affinity purification with mass spectrometry; cellular extracts of U2OS stably expressing FLAG-NFIB on anti-FLAG M2 affinity gel, eluted with FLAG peptide (0.2 mg/ml), SDS-PAGE, silver stain, bands analysed by LC-MS/MS).

binding, binds:
MYH9 (from UniProt P35579 1-1960)
RPA1 (from UniProt P27694 1-616)
SPT16 (from UniProt Q9Y5B9 1-1047)
SSRP1 (from UniProt Q08945 1-709)
B1
